Assay results from publication PMC10627786.
Results are given in words; binding and its absence hold for the method and conditions named. In cells and extracts the contact can be indirect. These calls come from enrichment with a bait or labelling near it, and not all partners need be listed. For some assays here: No binding means not detected with the bait. Sequences can lack the tags named with a protein.

Legend:
[1] = target: T1, ESYT1 fused with BirA*-FLAG (BioID bait) (human) (UniProt Q9BSJ8); assay: proximity labelling; BioID in stable inducible Flp-In T-REx 293 cells expressing BirA*-FLAG baits; mass spectrometry of biotinylated preys; SAINTexpress, two biological replicates per bait, 50 negative control runs, BFDR threshold 1%
T1 sequence: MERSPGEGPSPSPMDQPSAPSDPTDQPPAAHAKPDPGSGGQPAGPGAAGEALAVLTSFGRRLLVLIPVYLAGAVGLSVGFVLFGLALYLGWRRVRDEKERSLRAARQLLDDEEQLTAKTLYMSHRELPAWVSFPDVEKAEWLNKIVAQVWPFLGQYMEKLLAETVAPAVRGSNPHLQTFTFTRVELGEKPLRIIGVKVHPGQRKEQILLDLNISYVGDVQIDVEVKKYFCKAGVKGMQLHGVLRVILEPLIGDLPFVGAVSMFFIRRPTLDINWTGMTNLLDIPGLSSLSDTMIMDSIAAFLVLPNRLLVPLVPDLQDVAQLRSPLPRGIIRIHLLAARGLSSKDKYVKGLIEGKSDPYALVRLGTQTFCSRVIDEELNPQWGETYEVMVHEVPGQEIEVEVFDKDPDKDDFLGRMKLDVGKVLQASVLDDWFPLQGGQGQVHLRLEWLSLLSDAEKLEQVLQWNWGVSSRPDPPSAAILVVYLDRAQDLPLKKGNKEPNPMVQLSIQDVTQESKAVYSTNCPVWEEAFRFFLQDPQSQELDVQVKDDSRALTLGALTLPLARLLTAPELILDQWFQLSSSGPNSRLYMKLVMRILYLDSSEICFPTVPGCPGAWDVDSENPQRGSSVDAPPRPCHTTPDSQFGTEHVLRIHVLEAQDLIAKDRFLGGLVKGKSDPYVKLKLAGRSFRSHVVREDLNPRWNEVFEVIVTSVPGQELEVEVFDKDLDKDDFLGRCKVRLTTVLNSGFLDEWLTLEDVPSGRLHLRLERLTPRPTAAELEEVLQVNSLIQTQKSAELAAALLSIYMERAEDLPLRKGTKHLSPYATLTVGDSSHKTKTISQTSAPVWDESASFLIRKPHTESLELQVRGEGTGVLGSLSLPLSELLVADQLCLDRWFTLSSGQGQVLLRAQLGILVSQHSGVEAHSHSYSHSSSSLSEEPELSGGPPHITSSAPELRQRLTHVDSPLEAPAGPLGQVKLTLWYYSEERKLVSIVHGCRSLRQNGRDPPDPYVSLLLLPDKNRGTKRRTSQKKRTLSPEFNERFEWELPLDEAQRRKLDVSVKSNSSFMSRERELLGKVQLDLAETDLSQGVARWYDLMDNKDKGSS

[2] = target: T2, PDZD8 fused with BirA*-FLAG (BioID bait) (human) (UniProt Q8NEN9); assay: as above
T2 sequence: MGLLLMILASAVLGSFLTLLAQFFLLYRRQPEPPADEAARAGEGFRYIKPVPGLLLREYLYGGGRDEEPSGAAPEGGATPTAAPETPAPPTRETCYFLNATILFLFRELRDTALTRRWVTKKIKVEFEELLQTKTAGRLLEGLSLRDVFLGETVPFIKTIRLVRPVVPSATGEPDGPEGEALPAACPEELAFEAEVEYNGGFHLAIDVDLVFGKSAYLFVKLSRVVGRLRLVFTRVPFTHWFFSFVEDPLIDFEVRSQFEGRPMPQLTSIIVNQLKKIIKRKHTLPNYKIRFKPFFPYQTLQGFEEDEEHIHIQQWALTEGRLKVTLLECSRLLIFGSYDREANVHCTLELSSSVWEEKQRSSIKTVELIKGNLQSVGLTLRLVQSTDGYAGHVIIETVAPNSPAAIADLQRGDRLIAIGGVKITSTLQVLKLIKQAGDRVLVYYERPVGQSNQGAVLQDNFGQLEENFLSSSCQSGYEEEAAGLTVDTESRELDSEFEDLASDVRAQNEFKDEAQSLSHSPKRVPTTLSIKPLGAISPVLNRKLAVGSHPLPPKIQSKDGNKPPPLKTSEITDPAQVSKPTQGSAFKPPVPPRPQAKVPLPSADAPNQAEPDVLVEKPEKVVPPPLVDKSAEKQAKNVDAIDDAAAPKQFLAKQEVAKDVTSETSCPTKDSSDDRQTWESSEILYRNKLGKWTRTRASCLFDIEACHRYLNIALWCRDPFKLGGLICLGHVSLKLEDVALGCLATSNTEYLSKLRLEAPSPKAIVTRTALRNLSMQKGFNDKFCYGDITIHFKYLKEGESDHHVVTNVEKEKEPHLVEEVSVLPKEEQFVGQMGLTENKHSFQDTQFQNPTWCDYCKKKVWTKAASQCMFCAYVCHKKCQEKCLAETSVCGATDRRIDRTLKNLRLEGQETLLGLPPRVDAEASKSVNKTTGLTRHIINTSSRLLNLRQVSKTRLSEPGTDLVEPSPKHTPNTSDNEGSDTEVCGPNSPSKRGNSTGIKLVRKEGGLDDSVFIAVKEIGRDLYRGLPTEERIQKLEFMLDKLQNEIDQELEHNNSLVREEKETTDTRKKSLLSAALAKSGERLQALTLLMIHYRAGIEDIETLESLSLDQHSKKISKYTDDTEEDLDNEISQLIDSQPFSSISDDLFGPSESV

binding [1]: binds
binding [2]: no binding
B1: SYNJ2BP (endogenous prey in BioID) (protein, UniProt P57105 1-145)
chain: MNGRVDYLVTEEEINLTRGPSGLGFNIVGGTDQQYVSNDSGIYVSRIKENGAAALDGRLQEGDKILSVNGQDLKNLLHQDAVDLFRNAGYAVSLRVQHRLQVQNGPIGHRGEGDPSGIPIFMVLVPVFALTMVAAWAFMRYRQQL
